For at least one compound, name, drawing or mass did not settle the structure.
Tested on: experimental DTH reaction in mice
Assay: In vivo bioassay of inhibition of experimental DTH reactivity (oxazolone, ear swelling)
Conditions: Table XXIIIC, s.c.
Method: Groups of inbred BALB/c (Jackson Laboratories, Bar Harbor, Me.) or of outbred CD1 (Weizmann Institute Animal Breeding Center, Rehovot, Israel) mice are sensitized on the shaved abdominal skin with 100 μl of 2% oxazolone (OX) in acetone/olive oil (4/1, v/v) applied topically. DTH sensitivity is elicited 5 days later as follows: mice are challenged with 20 μl of 0.5% OX (10 μl administered topically to each side of the ear) in acetone/olive oil. A constant area of the ear is measured immediately before challenge and 24 and 48 h later with a Mitutoyo engineer's micrometer. The individual measuring ear swelling is blinded to the identity of the groups of mice. The increment (Δ) of ear swelling is expressed as the mean in units of 10^−2 mm or 10^−4 inch (+SE) depending on the micrometer that is used. Percent inhibition is calculated as follows: […]
Mice are treated with LMWH again Example 5.1, injected the day before primary sensitization to OX. On the fifth day after sensitization to OX, the 10 mice are challenged to induce a DTH reaction, as described above. […]
BALB/c mice (at least 5 mice per group) were sensitized on the shaved abdomen with 3% 4-ethoxymethylene-2-phenyl oxazolone (OX; BDH-Chemicals, GB) in acetone/olive oil applied topically. […] The ear was measured immediately before challenge and 24 h later with Mitutoyo engineer's micrometer (Japan). […]

Structure (SMILES): O=S(=O)(O)N[C@H]1C(O)O[C@H](COS(=O)(=O)O)[C@@H](O)[C@@H]1O (stereo partly drawn) [GlcN-2, 6S, D-Glucosamine-2,6-disulfate, reference compound]
- “R” value: 5.08 × 10^ % × (μg/gm)^−1

Reference: patent publication US7332480B2, “Compositions for the regulation of cytokine activity” (Yeda Research and Development Co. Ltd., priority 1992, dated 2008)
